*: point of attachment. OtBu = CC(C)(C)O*
Assay: general procedure: peptide synthesis; 2-chlorotrityl chloride resin (substrates)

Ac-Glu(OtBu)-Glu(OtBu)-Val-Val-Pro-nVal(CHOH)-Gly-OH
step yield (late stage modification step): 26%

Ac-Glu(OtBu)-Glu(OtBu)-Val-Val-Pro-nVal(CO)-Gly-Oallyl
step yield (late stage modification step): 79%

Ac-E(OtBu)E(OtBu)VV-OH
step yield (late stage modification step): 93% yield

Ac-Glu-Glu-Val-Val-Pro-nVal(CO)-Gly-allylamide
step yield (late stage modification step): 28.5%

Ac-E(OtBu)E(OtBu)VVP-OH
isolated yield (whole synthesis): 65%

Ac-Glu(OtBu)-Glu(OtBu)-Val-Val-Pro-nVal(CO)-Gly-allylamide
step yield (late stage modification step): 74.4%

Ac-Glu-Glu-Val-Val-Pro-nVal(CO)-Gly-Oallyl
step yield (late stage modification step): 24%

Ac-Glu-Glu-Val-Val-Pro-nVal(CO)-Carboxylic Acid
step yield (late stage modification step): 27.4%

Ac-Glu(OtBu)-Glu(OtBu)-Val-Val-Pro-nVal-(CHOH)-CONH2
step yield (coupling step): 68%

Ac-Glu-Glu-Val-Val-Pro-nVal-(CO)-CONH2
step yield (late stage modification step): 10%

Ac-Glu(OtBu)-Glu(OtBu)-Val-Val-Pro-nVal(CHOH)-Carboxylic Acid
step yield (late stage modification step): 82.2%

Ac-Glu(OtBu)-Glu(OtBu)-Val-Val-Pro-nVal(CHOH)-OEt
step yield (coupling step): 27.5%

Ac-Glu(OtBu)-Glu(OtBu)-Val-Val-Pro-nVal(CHOH)-Gly-Oallyl
step yield (coupling step): 91%

Ac-Glu(OtBu)-Glu(OtBu)-Val-Val-Pro-nVal-(CO)-CONH2
step yield (late stage modification step): 53%
